Some of the results follow.
Columns and labels:
Experiment in all cases: log2 fold change, soluble protein after heating vs DMSO (PISA); higher = thermal stabilisation; K562 cells, 10 uM, 30 min; active = over 0.2 and 3.5 SD of the protein, either way, in both replicates (recomputed)
[1] = compound: CC[C@@H]1C(=O)N(C)c2cnc(Nc3ccc(C(=O)NC4CCN(C)CC4)cc3OC)nc2N1C1CCCC1
Method in brief: (§1)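 Soluble protein was quantified by TMTpro 16plex LC-MS/MS after channel sums were equalised. It was obtained as the supernatant after 21,000xg for 90 min from pooled aliquots of K562 cells (2×10^6 cells/mL, 10 μM compound, 30 min) heated for 3 min across 48°C-58°C and extracted in PBS with 0.5% NP-40 at 4°C. Thermal stability values are relative to control samples and come from duplicates. They are given as log2 fold changes.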

Sequences of proteins named here, by UniProt entry; tags and fusion partners are left off. A change or cut given only in a name is not applied to a line headed by its entry.
UniProt Q6P2I3: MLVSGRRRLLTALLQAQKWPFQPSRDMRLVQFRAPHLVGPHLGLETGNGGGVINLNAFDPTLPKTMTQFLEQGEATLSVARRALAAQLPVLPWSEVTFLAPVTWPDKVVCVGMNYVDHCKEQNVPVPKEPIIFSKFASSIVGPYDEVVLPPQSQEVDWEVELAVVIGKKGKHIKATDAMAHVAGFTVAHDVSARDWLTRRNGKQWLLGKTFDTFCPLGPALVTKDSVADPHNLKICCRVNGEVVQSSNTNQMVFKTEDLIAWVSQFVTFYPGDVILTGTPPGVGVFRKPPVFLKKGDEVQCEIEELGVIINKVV
UniProt Q96KP1: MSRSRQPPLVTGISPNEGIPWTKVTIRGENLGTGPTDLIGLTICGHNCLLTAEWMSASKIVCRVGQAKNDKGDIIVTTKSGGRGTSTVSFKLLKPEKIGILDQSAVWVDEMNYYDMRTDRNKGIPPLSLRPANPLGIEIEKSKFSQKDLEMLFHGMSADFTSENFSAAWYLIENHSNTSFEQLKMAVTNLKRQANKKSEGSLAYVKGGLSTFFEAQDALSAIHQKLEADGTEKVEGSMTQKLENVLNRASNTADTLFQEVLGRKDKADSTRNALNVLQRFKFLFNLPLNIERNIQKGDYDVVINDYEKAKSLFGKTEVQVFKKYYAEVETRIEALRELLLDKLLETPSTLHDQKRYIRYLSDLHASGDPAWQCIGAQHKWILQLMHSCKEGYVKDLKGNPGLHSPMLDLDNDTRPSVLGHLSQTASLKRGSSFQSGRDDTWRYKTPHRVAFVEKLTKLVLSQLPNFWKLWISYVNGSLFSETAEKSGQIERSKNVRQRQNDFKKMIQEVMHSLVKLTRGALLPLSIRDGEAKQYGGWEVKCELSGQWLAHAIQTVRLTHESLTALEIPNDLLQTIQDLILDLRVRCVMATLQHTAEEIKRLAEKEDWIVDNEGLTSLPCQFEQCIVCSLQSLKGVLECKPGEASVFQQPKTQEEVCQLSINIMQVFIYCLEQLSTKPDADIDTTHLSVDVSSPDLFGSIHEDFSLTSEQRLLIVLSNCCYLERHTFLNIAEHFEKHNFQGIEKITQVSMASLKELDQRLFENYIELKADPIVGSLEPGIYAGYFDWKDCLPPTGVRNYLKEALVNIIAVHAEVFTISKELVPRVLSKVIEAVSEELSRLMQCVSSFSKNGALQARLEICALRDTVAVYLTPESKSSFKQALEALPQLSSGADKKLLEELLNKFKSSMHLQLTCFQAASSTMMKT
UniProt Q5W0V3: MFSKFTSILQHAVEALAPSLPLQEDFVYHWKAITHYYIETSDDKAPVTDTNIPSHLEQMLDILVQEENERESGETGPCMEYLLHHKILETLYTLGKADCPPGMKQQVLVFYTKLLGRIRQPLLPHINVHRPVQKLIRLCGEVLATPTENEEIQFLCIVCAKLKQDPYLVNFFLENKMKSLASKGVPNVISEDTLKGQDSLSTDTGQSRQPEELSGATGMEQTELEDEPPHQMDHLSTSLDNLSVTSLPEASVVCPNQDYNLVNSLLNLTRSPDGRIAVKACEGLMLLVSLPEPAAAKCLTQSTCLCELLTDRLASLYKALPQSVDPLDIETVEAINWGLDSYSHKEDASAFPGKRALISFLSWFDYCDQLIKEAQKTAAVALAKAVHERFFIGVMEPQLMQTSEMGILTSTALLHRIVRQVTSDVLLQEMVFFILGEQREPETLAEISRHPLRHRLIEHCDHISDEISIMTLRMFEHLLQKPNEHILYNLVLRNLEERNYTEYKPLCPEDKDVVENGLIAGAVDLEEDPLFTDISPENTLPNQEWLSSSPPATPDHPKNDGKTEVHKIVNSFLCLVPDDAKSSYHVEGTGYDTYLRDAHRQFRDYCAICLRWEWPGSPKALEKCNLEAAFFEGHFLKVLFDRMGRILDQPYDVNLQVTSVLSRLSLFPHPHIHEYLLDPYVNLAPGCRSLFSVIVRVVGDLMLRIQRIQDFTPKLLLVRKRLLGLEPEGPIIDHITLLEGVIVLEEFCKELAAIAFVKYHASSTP
UniProt Q96CS3: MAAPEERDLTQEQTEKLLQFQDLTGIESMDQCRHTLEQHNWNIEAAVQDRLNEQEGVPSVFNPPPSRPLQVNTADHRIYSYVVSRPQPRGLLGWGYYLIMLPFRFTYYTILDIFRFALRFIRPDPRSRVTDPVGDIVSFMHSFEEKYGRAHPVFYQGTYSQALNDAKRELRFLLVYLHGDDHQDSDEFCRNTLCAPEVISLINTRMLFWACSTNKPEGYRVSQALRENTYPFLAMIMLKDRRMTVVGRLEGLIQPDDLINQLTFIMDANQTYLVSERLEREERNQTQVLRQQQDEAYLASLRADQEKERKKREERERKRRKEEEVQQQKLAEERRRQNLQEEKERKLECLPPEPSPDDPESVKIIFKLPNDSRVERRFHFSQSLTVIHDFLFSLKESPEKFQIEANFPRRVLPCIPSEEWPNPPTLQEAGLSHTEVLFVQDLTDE
UniProt Q9Y5Q0: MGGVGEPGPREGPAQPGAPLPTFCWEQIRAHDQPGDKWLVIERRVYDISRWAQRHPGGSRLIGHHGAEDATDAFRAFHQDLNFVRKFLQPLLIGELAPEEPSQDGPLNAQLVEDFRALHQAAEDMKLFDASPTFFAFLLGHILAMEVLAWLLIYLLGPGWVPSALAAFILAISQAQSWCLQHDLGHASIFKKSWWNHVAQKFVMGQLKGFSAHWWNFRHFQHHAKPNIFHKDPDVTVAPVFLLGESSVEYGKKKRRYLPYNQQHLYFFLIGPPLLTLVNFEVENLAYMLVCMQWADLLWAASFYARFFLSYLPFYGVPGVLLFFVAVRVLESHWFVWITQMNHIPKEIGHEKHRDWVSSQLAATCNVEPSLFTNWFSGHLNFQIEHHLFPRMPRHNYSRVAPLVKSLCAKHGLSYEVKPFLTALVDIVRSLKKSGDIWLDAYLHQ
UniProt P34913, whole entry, looked up: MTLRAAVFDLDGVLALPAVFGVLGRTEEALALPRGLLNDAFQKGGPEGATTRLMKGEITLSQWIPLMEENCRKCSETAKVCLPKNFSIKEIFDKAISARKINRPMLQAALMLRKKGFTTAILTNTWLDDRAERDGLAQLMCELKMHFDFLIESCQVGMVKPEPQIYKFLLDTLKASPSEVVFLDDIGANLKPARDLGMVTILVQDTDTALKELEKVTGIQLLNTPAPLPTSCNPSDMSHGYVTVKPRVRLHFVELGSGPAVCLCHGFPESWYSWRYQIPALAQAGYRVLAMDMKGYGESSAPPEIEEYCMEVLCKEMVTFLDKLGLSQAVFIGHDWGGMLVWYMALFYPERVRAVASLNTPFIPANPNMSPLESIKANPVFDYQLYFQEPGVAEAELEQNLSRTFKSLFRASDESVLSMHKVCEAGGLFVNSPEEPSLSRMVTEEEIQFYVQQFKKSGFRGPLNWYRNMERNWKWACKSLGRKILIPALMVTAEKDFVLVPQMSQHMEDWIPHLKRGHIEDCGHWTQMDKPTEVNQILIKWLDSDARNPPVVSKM
UniProt O00471: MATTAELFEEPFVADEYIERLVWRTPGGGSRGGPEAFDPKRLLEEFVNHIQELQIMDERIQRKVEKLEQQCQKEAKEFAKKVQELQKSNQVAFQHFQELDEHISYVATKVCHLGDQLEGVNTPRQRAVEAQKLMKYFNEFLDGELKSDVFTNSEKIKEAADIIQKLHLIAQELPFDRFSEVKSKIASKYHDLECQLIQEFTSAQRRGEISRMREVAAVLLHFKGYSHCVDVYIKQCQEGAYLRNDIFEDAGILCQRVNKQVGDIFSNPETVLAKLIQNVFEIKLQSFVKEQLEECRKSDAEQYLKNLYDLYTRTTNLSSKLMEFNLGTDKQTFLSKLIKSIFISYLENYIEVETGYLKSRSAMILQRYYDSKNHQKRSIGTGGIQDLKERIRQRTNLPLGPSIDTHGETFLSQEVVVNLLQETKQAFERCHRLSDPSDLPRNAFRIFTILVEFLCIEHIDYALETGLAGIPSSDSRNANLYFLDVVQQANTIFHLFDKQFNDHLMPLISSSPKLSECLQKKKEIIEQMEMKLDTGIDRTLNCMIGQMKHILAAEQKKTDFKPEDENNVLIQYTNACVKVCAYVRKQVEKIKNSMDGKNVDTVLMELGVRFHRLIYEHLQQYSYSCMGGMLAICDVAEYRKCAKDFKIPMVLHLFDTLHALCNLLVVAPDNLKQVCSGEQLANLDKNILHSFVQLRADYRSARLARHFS
UniProt Q03468, whole entry, looked up: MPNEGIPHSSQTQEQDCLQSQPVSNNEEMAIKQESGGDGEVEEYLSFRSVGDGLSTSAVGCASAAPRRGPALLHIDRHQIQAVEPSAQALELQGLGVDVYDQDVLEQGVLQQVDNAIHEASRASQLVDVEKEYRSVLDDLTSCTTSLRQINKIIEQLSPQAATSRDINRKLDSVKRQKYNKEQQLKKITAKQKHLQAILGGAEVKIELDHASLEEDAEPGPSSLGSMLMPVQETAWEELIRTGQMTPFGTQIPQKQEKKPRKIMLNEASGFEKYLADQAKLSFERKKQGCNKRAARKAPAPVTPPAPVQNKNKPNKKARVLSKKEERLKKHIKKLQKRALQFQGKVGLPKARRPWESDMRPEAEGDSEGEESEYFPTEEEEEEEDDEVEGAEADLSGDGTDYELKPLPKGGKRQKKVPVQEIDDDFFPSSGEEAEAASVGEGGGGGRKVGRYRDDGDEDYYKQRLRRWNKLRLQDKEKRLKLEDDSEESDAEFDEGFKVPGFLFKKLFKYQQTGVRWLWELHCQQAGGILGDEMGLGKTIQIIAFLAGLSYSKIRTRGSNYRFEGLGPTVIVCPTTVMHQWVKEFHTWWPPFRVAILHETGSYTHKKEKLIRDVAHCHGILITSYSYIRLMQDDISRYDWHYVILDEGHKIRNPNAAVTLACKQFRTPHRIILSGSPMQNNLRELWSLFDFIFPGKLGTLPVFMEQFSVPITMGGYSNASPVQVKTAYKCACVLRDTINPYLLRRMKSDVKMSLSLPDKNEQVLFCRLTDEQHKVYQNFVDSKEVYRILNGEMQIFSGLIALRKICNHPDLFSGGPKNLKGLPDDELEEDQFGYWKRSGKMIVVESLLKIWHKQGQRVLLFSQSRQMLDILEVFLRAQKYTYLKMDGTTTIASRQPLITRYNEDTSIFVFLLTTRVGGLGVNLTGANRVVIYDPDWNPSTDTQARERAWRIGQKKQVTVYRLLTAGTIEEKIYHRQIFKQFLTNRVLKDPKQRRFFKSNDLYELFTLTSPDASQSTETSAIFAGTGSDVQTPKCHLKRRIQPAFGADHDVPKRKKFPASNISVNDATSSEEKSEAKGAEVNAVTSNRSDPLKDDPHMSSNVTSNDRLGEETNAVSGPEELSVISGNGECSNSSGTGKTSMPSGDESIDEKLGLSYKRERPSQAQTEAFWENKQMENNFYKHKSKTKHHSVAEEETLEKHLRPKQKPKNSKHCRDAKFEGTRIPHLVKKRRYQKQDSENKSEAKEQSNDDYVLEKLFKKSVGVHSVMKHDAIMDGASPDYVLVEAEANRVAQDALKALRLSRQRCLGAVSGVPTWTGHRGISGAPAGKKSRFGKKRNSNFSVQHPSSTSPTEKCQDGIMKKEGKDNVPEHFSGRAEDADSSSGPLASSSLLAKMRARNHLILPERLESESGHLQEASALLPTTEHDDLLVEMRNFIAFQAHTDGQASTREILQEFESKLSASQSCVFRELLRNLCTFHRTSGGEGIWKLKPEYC
UniProt Q9UPT5: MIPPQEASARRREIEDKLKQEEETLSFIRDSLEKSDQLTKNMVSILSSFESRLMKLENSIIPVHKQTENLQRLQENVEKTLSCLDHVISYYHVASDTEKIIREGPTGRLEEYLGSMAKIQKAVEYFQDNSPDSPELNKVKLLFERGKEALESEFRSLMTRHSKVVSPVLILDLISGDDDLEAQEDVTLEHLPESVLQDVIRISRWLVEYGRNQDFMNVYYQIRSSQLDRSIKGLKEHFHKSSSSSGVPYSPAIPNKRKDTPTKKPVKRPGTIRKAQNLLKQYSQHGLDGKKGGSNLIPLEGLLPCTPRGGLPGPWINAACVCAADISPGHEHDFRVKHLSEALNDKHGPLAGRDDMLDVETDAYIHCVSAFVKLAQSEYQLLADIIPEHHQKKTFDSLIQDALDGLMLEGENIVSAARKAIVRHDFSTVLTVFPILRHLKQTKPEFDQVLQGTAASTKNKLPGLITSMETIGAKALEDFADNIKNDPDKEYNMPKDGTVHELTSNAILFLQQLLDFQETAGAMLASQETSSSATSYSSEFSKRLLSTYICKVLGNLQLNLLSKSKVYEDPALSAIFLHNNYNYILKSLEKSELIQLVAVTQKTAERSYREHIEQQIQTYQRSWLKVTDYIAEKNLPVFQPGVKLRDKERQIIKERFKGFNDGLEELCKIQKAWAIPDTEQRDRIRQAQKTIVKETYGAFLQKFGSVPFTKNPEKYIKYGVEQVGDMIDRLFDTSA

volasertib = compound: CC[C@@H]1C(=O)N(C)c2cnc(Nc3ccc(C(=O)N[C@H]4CC[C@H](N5CCN(CC6CC6)CC5)CC4)cc3OC)nc2N1C(C)C [volasertib]
Method in brief: as §1

[2] = compound: CC[C@H](C)N1C=C(C2=C(C=C(C=C21)C3=CN=C(C=C3)N4CCNCC4)C(=O)NCC5=C(C=C(NC5=O)C)C)C
Method in brief: as §1

epoxomicin = compound: CC[C@H](C)[C@@H](C(=O)N[C@@H]([C@@H](C)O)C(=O)N[C@@H](CC(C)C)C(=O)[C@]1(CO1)C)NC(=O)[C@H]([C@@H](C)CC)N(C)C(=O)C [epoxomicin]
Method in brief: as §1

[3] = compound: CCn1c(C(=O)N(C2CC2)C2CC2)cc2c3c(ncn3C)c(Nc3cc(C)n(C)n3)nc21
Method in brief: as §1

rosiglitazone = compound: CN(CCOC1=CC=C(C=C1)C[C@H]2C(=O)NC(=O)S2)C3=CC=CC=N3 (racemic) [rosiglitazone]
Method in brief: as §1

[4] = compound: CN1C2=C(C3=C1C(=O)N(N=C3)CC4=CC(=CC=C4)N)SC(=C2)S(=O)C
Method in brief: as §1

saracatinib = compound: CN1CCN(CCOc2cc(OC3CCOCC3)c3c(Nc4c(Cl)ccc5c4OCO5)ncnc3c2)CC1 [saracatinib]
Method in brief: as §1

alvocidib = compound: CN1CC[C@H](c2c(O)cc(O)c3c(=O)cc(-c4ccccc4Cl)oc23)[C@H](O)C1 [alvocidib]
Method in brief: as §1

[5] = compound: CNC(=O)C1=CC=CC=C1NC2=NC(=NC=C2Cl)NC3=C(C=C(C=C3)N4CCOCC4)OC
Method in brief: as §1

rucaparib = compound: CNCc1ccc(-c2[nH]c3cc(F)cc4c3c2CCNC4=O)cc1 [rucaparib]
Method in brief: as §1

[6] = compound: CNc1nc(-c2ccc3c(N)n[nH]c3c2)cc(N2C[C@@H](C(=O)NC3CCCCC3)CC[C@H]2C)n1
Method in brief: as §1

encorafenib = compound: COC(=O)N[C@@H](C)CNc1nccc(-c2cn(C(C)C)nc2-c2cc(Cl)cc(NS(C)(=O)=O)c2F)n1 [encorafenib]
Method in brief: as §1

[7] = compound: CN(C)CC(=O)Nc1ccc2[nH]c(=O)c3ccccc3c2c1
Method in brief: as §1

sotrastaurin = compound: CN1CCN(c2nc(C3=C(c4c[nH]c5ccccc45)C(=O)NC3=O)c3ccccc3n2)CC1 [sotrastaurin]
Method in brief: as §1

defactinib = compound: CNC(=O)c1ccc(Nc2ncc(C(F)(F)F)c(NCc3nccnc3N(C)S(C)(=O)=O)n2)cc1 [defactinib]
Method in brief: as §1

[8] = compound: COC(=O)[C@H](CCSC)NC(=O)C1=C(C=C(C=C1)NC[C@H](CS)N)C2=CC=CC=C2
Method in brief: as §1

[9] = compound: CCn1cc(-c2ccnc3[nH]c(-c4cccc(CN(C)C)c4)cc23)c(-c2ccc(NC(=O)N(C)C)cc2)n1
Method in brief: as §1

[10] = compound: CN1CCC(CNc2ccc3ncc(-c4cccc(OC(F)(F)F)c4)n3n2)CC1
Method in brief: as §1

Tubastatin A = compound: CN1CCc2c(c3ccccc3n2Cc2ccc(C(=O)NO)cc2)C1 [Tubastatin A]
Method in brief: as §1

Measured: log2 fold change

FAHD2B (UniProt Q6P2I3)
inactive: [1] 0.097 | volasertib -0.142 | [2] -0.032 | epoxomicin 0.04 | [3] -0.101 | rosiglitazone 0.032 | [4] -0.056 | saracatinib 0.177 | alvocidib 0.01 | [5] -0.108 | rucaparib -0.076 | [6] 0.013 | encorafenib -0.071

ESYT2 (UniProt H7BXI1)
inactive: [1] -0.046 | volasertib 0.045 | [2] 0.006 | epoxomicin -0.13 | [3] -0.187 | [7] 0.003 | rosiglitazone 0.001 | [4] 0.137 | saracatinib 0.052 | sotrastaurin 0.091 | [5] 0.062 | defactinib -0.103 | rucaparib -0.062 | [6] -0.076 | encorafenib 0.066 | [8] -0.009

FAAP100 (UniProt Q0VG06)
inactive: [1] -0.01 | volasertib 0.149 | [2] -0.02 | epoxomicin 0.139 | [9] -0.093 | [7] 0.061 | [4] -0.02 | [10] 0.124 | saracatinib 0.044 | sotrastaurin -0.014 | Tubastatin A 0.028 | [5] -0.178 | defactinib -0.044 | rucaparib 0.009 | [6] -0.067 | encorafenib -0.04 | [8] -0.097

EXOC2 (UniProt Q96KP1)
inactive: [1] -0.13 | volasertib -0.463 | [2] -0.041 | epoxomicin 0 | [9] 0.044 | [7] 0.058 | [4] 0.123 | saracatinib -0.058 | sotrastaurin -0.214 | Tubastatin A 0.044 | [5] 0.064 | defactinib -0.096 | rucaparib 0.136 | [6] -0.004 | encorafenib 0.126 | [8] -0.085
active: [10] -0.386

FAM160B1 (UniProt Q5W0V3)
inactive: [1] -0.007 | volasertib -0.043 | [2] 0.07 | epoxomicin 0 | [9] -0.057 | [7] -0.052 | [4] -0.056 | [10] -0.254 | saracatinib -0.003 | sotrastaurin -0.071 | Tubastatin A 0 | [5] -0.011 | defactinib -0.01 | rucaparib -0.036 | [6] -0.007 | encorafenib -0.015 | [8] 0.072

FAM114A2 (UniProt Q9NRY5)
active: [10] -0.29
inactive: [1] -0.094 | volasertib -0.136 | [2] 0.046 | epoxomicin 0.052 | [9] -0.059 | [7] 0.02 | [4] -0.013 | saracatinib 0.005 | sotrastaurin -0.048 | Tubastatin A -0.019 | [5] -0.001 | defactinib -0.04 | rucaparib -0.022 | [6] -0.054 | encorafenib 0.008 | [8] 0.025

EXTL3 (UniProt O43909)
inactive: [1] -0.014 | volasertib -0.003 | [2] 0.232 | epoxomicin 0.166 | [9] -0.015 | [7] -0.013 | rosiglitazone -0.014 | [4] 0.073 | [10] 0.01 | saracatinib -0.088 | sotrastaurin 0.136 | alvocidib -0.117 | Tubastatin A -0.028 | defactinib 0.037 | rucaparib 0.009 | [6] -0.127 | encorafenib 0.094 | [8] -0.016

EXTL2 (UniProt Q9UBQ6)
inactive: [1] 0.057 | volasertib -0.052 | [2] 0.041 | epoxomicin -0.035 | [9] -0.046 | [7] 0.06 | [4] -0.001 | [10] -0.157 | saracatinib 0.157 | sotrastaurin 0.036 | Tubastatin A -0.136 | [5] -0.072 | defactinib -0.145 | rucaparib 0.001 | [6] 0.052 | encorafenib -0.08 | [8] 0.13

FAM117A (UniProt Q9C073)
active: [5] -0.268
inactive: [1] 0.001 | volasertib 0.129 | [2] 0.071 | epoxomicin 0.091 | [9] -0.025 | [7] 0.028 | [4] -0.008 | [10] -0.182 | saracatinib -0.019 | sotrastaurin 0.009 | Tubastatin A 0.058 | defactinib -0.141 | rucaparib -0.079 | [6] 0.083 | encorafenib -0.023 | [8] 0.009

EWSR1 (UniProt H7BY36)
inactive: [1] 0.003 | volasertib -0.015 | [2] -0.02 | epoxomicin 0.255 | [3] -0.062 | [7] -0.05 | rosiglitazone 0.118 | alvocidib -0.126 | [5] -0.141 | defactinib -0.068 | rucaparib 0.045 | encorafenib -0.08 | [8] 0.14

FAF2 (UniProt Q96CS3)
active: volasertib -0.322
inactive: [1] -0.095 | [2] 0.002 | epoxomicin -0.046 | [9] 0.018 | [7] 0.037 | [4] 0.016 | [10] -0.069 | saracatinib -0.084 | sotrastaurin -0.048 | Tubastatin A -0.008 | [5] 0.021 | defactinib -0.011 | rucaparib 0.015 | [6] 0.021 | encorafenib 0.036 | [8] 0

FADS3 (UniProt Q9Y5Q0)
inactive: [1] -0.02 | volasertib 0.095 | [2] 0.013 | epoxomicin -0.016 | [9] -0.116 | [7] -0.05 | [4] -0.13 | [10] -0.231 | saracatinib 0.035 | sotrastaurin 0.037 | Tubastatin A -0.061 | [5] 0.026 | defactinib 0.048 | rucaparib 0.024 | [6] -0.079 | encorafenib 0.02 | [8] 0.026

EPHX2 (UniProt P34913)
inactive: [1] 0.098 | volasertib 0.117 | [2] -0.019 | epoxomicin -0.012 | [9] -0.032 | [7] -0.015 | [4] 0.066 | [10] 0.091 | saracatinib -0.009 | sotrastaurin 0.172 | Tubastatin A 0.003 | [5] -0.022 | defactinib -0.002 | rucaparib 0.002 | [6] 0.216 | encorafenib 0.003 | [8] -0.011

EXOC5 (UniProt O00471)
inactive: [1] -0.236 | [2] 0.093 | epoxomicin 0.041 | [9] 0.022 | [7] 0.066 | [4] 0.054 | [10] -0.215 | saracatinib -0.043 | sotrastaurin -0.209 | Tubastatin A 0.015 | [5] 0.042 | defactinib -0.064 | rucaparib 0.091 | [6] -0.06 | encorafenib 0.083 | [8] -0.071
active: volasertib -0.596

4 consecutive entries out of the list so far, for reference:
FAM114A2 (UniProt Q9NRY5)
active: [10] -0.29
inactive: [1] -0.094 | volasertib -0.136 | [2] 0.046 | epoxomicin 0.052 | [9] -0.059 | [7] 0.02 | [4] -0.013 | saracatinib 0.005 | sotrastaurin -0.048 | Tubastatin A -0.019 | [5] -0.001 | defactinib -0.04 | rucaparib -0.022 | [6] -0.054 | encorafenib 0.008 | [8] 0.025

EXTL3 (UniProt O43909)
inactive: [1] -0.014 | volasertib -0.003 | [2] 0.232 | epoxomicin 0.166 | [9] -0.015 | [7] -0.013 | rosiglitazone -0.014 | [4] 0.073 | [10] 0.01 | saracatinib -0.088 | sotrastaurin 0.136 | alvocidib -0.117 | Tubastatin A -0.028 | defactinib 0.037 | rucaparib 0.009 | [6] -0.127 | encorafenib 0.094 | [8] -0.016

EXTL2 (UniProt Q9UBQ6)
inactive: [1] 0.057 | volasertib -0.052 | [2] 0.041 | epoxomicin -0.035 | [9] -0.046 | [7] 0.06 | [4] -0.001 | [10] -0.157 | saracatinib 0.157 | sotrastaurin 0.036 | Tubastatin A -0.136 | [5] -0.072 | defactinib -0.145 | rucaparib 0.001 | [6] 0.052 | encorafenib -0.08 | [8] 0.13

FAM117A (UniProt Q9C073)
active: [5] -0.268
inactive: [1] 0.001 | volasertib 0.129 | [2] 0.071 | epoxomicin 0.091 | [9] -0.025 | [7] 0.028 | [4] -0.008 | [10] -0.182 | saracatinib -0.019 | sotrastaurin 0.009 | Tubastatin A 0.058 | defactinib -0.141 | rucaparib -0.079 | [6] 0.083 | encorafenib -0.023 | [8] 0.009

More entries:

ERCC2 (UniProt P18074)
inactive: [1] -0.015 | volasertib -0.258 | [2] 0.043 | [9] -0.076 | [7] -0.019 | [4] 0.013 | [10] -0.153 | saracatinib -0.016 | sotrastaurin -0.035 | Tubastatin A 0.051 | [5] -0.01 | defactinib -0.094 | rucaparib -0.013 | [6] -0.027 | encorafenib 0.177 | [8] -0.005
active: epoxomicin 0.326

ERCC6 (UniProt Q03468)
inactive: [1] 0.072 | volasertib -0.135 | [2] -0.06 | epoxomicin 0.015 | [9] -0.091 | [7] 0.004 | [4] -0.009 | [10] 0.08 | saracatinib -0.006 | sotrastaurin 0.169 | Tubastatin A -0.093 | [5] 0.126 | defactinib 0.016 | rucaparib 0 | [6] -0.085 | encorafenib -0.088 | [8] 0.055

EXOC7 (UniProt Q9UPT5)
inactive: [1] -0.156 | [2] 0.09 | epoxomicin 0.048 | [9] 0.015 | [7] 0.006 | [4] 0.033 | saracatinib 0.024 | sotrastaurin -0.218 | Tubastatin A 0.029 | [5] -0.04 | defactinib -0.06 | rucaparib -0.01 | [6] -0.077 | encorafenib 0.006 | [8] -0.047
active: volasertib -0.619 | [10] -0.317

Source: the supplement of paper PMC10849652
